Data as given in PubChem BioAssay AID208 (DTP/NCI, 2004).
The list does not hold the whole screen: it gathers some chemical classes. Not every dose and run of a compound is shown. T/C is the treated group as % of the vehicle group. Schedules are NCI's codes, taken here to give the interval after Q, in days (D) or hours (H), and the number of doses after X. Some T/C values carry the count of animals alive at the toxicity check; without a count or a note in brackets, all were alive then. Some entries give survivors of the animals treated and no T/C: the source holds a T/C of zero for them, seemingly a mark for toxic or unscored doses. Counts of survivors are from the toxicity check, whose day is not always given; animals may have died later.

Tested on: HT29 intrarenal xenograft, nude mice, tumor weight change
Assay: NCI In Vivo Anticancer Drug Screen. Data for tumor model HT29;CX-1 Human Adenocarcinoma (MER+) (intrarenal inoculation) in NU/NU BALB/C (nude) mice
Conditions: T/C endpoint: mean tumor weight change, schedule: Q04DX004 (sc), higher T/C = larger tumour; for T/C: evaluated on day 15
Experimental: The antitumor activity of compounds was measured in mice bearing transplantable tumors. Survival or tumor size were measured and the results are expressed as the measurement made in the treated group (T) divided by the measurement made in the vehicle treated control group (C). The tumor model used in this assay is HT29;CX-1 Human Adenocarcinoma (MER+) (intrarenal inoculation) in NU/NU BALB/C (nude) mice

| SMILES | T/C (dose: 75.0 mg/kg/injection, vehicle: Klucel (hydroxypropylcellulose) (HPC)) | T/C (dose: 150.0 mg/kg/injection, vehicle: Klucel (hydroxypropylcellulose) (HPC)) | survivor count (dose: 300.0 mg/kg/injection, vehicle: Klucel (hydroxypropylcellulose) (HPC)) | survivor count (dose: 600.0 mg/kg/injection, vehicle: Klucel (hydroxypropylcellulose) (HPC)) | T/C (dose: 100.0 mg/kg/injection, vehicle: saline) | T/C (dose: 200.0 mg/kg/injection, vehicle: saline) | T/C (dose: 400.0 mg/kg/injection, vehicle: saline) | T/C (dose: 800.0 mg/kg/injection, vehicle: saline) | survivor count (dose: 1200.0 mg/kg/injection, vehicle: saline) | survivor count (dose: 2400.0 mg/kg/injection, vehicle: saline) |
| --- | --- | --- | --- | --- | --- | --- | --- | --- | --- | --- |
| ICCN(CCI)c1cccc2ccccc12 | 128 % of control | 87 % of control [5 of 6 alive on day 15] | 3 of 6 on day 15 | 0 of 6 on day 15 | – | – | – | – | – | – |
| CC1(C)CN1P(=O)(Nc1ncccn1)N1CC1(C)C (stereo not given) | – | – | – | – | 60 % of control | 80 % of control | 56 % of control | 33 % of control | 0 of 6 on day 15 | 0 of 6 on day 15 |
